Reference: PubChem BioAssay AID504744 (Drosophila RNAi Screening Center, 2011)
In all, the deposit lists about 23,000 reagents; shown is a random part of those that have a named target and a result. Of all reagents, 98 (0.43%) got an active call. 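Only hit calls are given; the phospho-dAkt signals, z-scores and hit direction were not deposited.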 The numbers tell different reagents against one gene apart. A plus sign joins genes that one reagent is predicted to hit.

Test: 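Find genes whose loss alters insulin-driven dAkt phosphorylation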 (primary screen)
Cell system: Drosophila Kc167 cells
Knock-down reagent: long dsRNA against Drosophila genes, 250 ng dsRNA per well of a 384-well plate
Timing: 3 days of knock-down, then overnight serum-free starvation before stimulation
Treatment: bovine insulin at 387 nM for 10 minutes after 12 h without serum
Measured: 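Per-well phospho-dAkt level from an in-cell fluorescent antibody stain, divided by a DNA-dye signal; log2 residuals turned into z-scores that take cell number into account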
Active means: 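Hit in the insulin screen when the two-replicate mean z-score is more extreme than plus or minus 2.5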

target gene | reagent | Outcome
pim (pimples) | 1 | inactive
SCOT (Succinyl-CoA:3-ketoacid CoA transferase) | 1 | inactive
mey (morpheyus) | 1 | inactive
CG13705 | 1 | inactive
CG13705 | 2 | inactive
CG10208 | 1 | inactive
Lipt1 (Lipoyltransferase 1) | 1 | inactive
Lipt1 (Lipoyltransferase 1) | 2 | inactive
l(1)sc (lethal of scute) | 1 | inactive
ste24a (prenyl protease type I) | 1 | inactive
CG8468 | 1 | inactive
Or47b (Odorant receptor 47b) | 1 | inactive
CG40006 | 1 | inactive
CG40006 | 2 | inactive
CG40006 | 3 | inactive
CG40006 | 4 | inactive
Neurochondrin | 1 | inactive
CG3581 | 1 | inactive
CR18275 + CG13373 | 1 | inactive
Gas41 | 1 | inactive
LManVI (Lysosomal alpha-mannosidase VI) | 1 | inactive
dsf (dissatisfaction) | 1 | inactive
Cp7Fa (Chorion protein a at 7F) | 1 | inactive
Cp7Fa (Chorion protein a at 7F) | 2 | inactive
shps (sheepish) | 1 | inactive
Pex14 (Peroxin 14) | 1 | inactive
CG5687 | 1 | inactive
CG4984 + CG4975 | 1 | inactive
CG4984 + CG4975 | 2 | inactive
CG16743 | 1 | inactive
CG15404 | 1 | inactive
Pdi (Protein disulfide isomerase) | 1 | inactive
trp (transient receptor potential) | 1 | inactive
CR16735 (pseudo) | 1 | inactive
Ku80 | 1 | inactive
CG14856 | 1 | inactive
SdhA (Succinate dehydrogenase, subunit A (flavoprotein)) | 1 | inactive
Lsm10 | 1 | inactive
Cdc50 (Cell division cycle 50) | 1 | inactive
Utx (Utx histone demethylase) | 1 | inactive
CG14642 | 1 | inactive
AttC (Attacin-C) | 1 | inactive
Ns3 (Nucleostemin 3) | 1 | inactive
CG8584 | 1 | inactive
CG34326 (retired record) | 1 | inactive
MCU (Mitochondrial calcium uniporter) | 1 | inactive
CG10931 | 1 | inactive
Rpp20 + CG33932 | 1 | inactive
CG5550 | 1 | inactive
Best2 (Bestrophin 2) | 1 | inactive
Tmem131 (Transmembrane protein 131) | 1 | inactive
CG7600 | 1 | inactive
CG7432 | 1 | inactive
PGAP5 (Post-GPI attachment to proteins 5) | 1 | inactive
Fbp2 (Fat body protein 2) | 1 | inactive
Etfb (Electron transfer flavoprotein beta subunit) | 1 | inactive
Yip1d1 (Yip1 domain-containing 1) | 1 | inactive
CG7857 | 1 | inactive
Gip (GIP-like) | 1 | inactive
CG13359 | 1 | inactive
CG17292 | 1 | inactive
WASp | 1 | inactive
casp (caspar) | 1 | inactive
Cp16 (Chorion protein 16) | 1 | inactive
Syp (Syncrip) | 1 | inactive
Syp (Syncrip) | 2 | inactive
CG5162 | 1 | inactive
CG7294 | 1 | inactive
CG13891 | 1 | inactive

12 successive entries already listed, for reference:
target gene | reagent | Outcome
Rpp20 + CG33932 | 1 | inactive
CG5550 | 1 | inactive
Best2 (Bestrophin 2) | 1 | inactive
Tmem131 (Transmembrane protein 131) | 1 | inactive
CG7600 | 1 | inactive
CG7432 | 1 | inactive
PGAP5 (Post-GPI attachment to proteins 5) | 1 | inactive
Fbp2 (Fat body protein 2) | 1 | inactive
Etfb (Electron transfer flavoprotein beta subunit) | 1 | inactive
Yip1d1 (Yip1 domain-containing 1) | 1 | inactive
CG7857 | 1 | inactive
Gip (GIP-like) | 1 | inactive

Next records follow:
target gene | reagent | Outcome
CG40486 | 1 | inactive
AdamTS-B (ADAM metallopeptidase with thrombospondin type 1 motif B) | 1 | inactive
CG6569 | 1 | inactive
trv (trivet) | 1 | inactive
trv (trivet) | 2 | inactive
trv (trivet) | 3 | inactive
trv (trivet) | 4 | inactive
ldd (lipid droplet defective) | 1 | inactive
ldd (lipid droplet defective) | 2 | inactive
CG5282 | 1 | inactive
Hasp (Hig-anchoring scaffold protein) | 1 | inactive
CG34325 | 1 | inactive
CG34325 | 2 | inactive
Or85c (Odorant receptor 85c) | 1 | inactive
CG43902 | 1 | inactive
laza (lazaro) | 1 | inactive
dmrt11E (doublesex-Mab related 11E) | 1 | inactive
CG11601 | 1 | inactive
CG15754 | 1 | inactive
insb (insensible) | 1 | inactive
RabX6 | 1 | inactive
Damm (Death associated molecule related to Mch2 caspase) | 1 | inactive
CG9205 | 1 | inactive
CG40245 (retired record) | 1 | inactive
CG32815 | 1 | inactive
E(var)3-9 (Enhancer of variegation 3-9) | 1 | inactive
Cat (Catalase) | 1 | inactive
NUCB1 (Nucleobindin 1) | 1 | inactive
tj (traffic jam) | 1 | inactive
CG30486 | 1 | inactive
Prosalpha4T1 (Proteasome alpha4 subunit, Testis-specific 1) | 1 | inactive
et (eye transformer) | 1 | inactive
CG14043 | 1 | inactive
CarT (Carcinine transporter) | 1 | inactive
Prosalpha1R + Prosalpha1 | 1 | inactive
CG17110 | 1 | inactive
Prp8 (pre-mRNA processing factor 8) | 1 | inactive
Cisd2 (CDGSH iron sulfur domain 2) | 1 | inactive
